Measurements reported in the supplement of paper PMC10849652.
This is one part of the list.

Sequences of proteins named here, by UniProt entry; tags and fusion partners are left off. A change or cut given only in a name is not applied to a line headed by its entry.
UniProt P29353: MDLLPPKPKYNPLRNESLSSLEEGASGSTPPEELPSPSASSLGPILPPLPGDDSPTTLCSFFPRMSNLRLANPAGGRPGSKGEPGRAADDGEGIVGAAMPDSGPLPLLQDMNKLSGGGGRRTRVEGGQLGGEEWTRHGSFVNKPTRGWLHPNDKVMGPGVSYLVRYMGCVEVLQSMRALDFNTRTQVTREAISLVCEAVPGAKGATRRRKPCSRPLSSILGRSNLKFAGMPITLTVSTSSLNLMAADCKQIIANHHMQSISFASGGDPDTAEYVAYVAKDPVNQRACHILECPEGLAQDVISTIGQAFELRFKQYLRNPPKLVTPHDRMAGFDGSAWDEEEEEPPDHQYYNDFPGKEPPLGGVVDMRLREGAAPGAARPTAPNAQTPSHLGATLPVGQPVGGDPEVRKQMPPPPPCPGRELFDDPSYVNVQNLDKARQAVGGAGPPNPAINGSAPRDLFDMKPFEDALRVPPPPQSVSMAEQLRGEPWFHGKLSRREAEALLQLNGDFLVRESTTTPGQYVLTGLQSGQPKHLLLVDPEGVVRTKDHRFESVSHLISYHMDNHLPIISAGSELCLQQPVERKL
UniProt P60468, whole entry, looked up: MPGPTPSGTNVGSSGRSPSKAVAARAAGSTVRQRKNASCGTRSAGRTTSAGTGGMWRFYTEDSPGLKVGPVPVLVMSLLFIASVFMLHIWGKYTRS
UniProt Q12874: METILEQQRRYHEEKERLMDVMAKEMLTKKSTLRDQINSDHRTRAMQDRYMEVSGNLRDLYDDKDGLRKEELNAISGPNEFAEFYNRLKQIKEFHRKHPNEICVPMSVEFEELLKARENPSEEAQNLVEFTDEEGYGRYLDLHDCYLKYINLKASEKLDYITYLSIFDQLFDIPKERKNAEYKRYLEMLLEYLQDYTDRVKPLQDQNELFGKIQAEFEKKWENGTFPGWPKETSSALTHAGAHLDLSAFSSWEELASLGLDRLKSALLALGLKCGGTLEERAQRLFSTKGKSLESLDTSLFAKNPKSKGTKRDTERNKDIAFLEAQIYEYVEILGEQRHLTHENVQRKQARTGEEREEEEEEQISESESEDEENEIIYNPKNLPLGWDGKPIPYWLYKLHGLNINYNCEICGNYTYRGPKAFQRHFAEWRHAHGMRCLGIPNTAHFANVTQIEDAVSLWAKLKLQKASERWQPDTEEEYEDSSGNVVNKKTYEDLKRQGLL
UniProt P30740: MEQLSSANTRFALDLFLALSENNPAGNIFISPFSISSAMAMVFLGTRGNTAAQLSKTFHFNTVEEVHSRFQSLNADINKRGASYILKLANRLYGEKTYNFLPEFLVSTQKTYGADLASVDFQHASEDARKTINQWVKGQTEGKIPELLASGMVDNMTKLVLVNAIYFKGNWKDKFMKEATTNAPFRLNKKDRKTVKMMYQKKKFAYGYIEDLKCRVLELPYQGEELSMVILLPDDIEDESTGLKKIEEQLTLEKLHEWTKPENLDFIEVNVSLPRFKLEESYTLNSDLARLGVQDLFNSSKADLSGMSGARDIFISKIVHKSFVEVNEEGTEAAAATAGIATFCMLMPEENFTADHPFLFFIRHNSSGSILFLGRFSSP
UniProt Q9NVA2: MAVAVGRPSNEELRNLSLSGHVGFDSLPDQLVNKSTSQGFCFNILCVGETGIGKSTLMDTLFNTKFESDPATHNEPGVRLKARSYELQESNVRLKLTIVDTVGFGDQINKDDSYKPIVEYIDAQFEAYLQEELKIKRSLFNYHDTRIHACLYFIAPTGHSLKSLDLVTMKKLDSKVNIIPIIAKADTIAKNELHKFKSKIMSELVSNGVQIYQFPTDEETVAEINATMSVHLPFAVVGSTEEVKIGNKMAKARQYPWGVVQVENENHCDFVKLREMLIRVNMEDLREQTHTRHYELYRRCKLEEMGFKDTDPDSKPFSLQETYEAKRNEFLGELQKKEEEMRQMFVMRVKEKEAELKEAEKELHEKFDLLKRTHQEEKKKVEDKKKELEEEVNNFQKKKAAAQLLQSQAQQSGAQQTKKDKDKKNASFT
UniProt Q9Y3B4: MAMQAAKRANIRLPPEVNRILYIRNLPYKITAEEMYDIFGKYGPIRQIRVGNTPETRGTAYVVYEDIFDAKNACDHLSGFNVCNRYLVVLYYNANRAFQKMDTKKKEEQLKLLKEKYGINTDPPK
UniProt O75533, whole entry, looked up: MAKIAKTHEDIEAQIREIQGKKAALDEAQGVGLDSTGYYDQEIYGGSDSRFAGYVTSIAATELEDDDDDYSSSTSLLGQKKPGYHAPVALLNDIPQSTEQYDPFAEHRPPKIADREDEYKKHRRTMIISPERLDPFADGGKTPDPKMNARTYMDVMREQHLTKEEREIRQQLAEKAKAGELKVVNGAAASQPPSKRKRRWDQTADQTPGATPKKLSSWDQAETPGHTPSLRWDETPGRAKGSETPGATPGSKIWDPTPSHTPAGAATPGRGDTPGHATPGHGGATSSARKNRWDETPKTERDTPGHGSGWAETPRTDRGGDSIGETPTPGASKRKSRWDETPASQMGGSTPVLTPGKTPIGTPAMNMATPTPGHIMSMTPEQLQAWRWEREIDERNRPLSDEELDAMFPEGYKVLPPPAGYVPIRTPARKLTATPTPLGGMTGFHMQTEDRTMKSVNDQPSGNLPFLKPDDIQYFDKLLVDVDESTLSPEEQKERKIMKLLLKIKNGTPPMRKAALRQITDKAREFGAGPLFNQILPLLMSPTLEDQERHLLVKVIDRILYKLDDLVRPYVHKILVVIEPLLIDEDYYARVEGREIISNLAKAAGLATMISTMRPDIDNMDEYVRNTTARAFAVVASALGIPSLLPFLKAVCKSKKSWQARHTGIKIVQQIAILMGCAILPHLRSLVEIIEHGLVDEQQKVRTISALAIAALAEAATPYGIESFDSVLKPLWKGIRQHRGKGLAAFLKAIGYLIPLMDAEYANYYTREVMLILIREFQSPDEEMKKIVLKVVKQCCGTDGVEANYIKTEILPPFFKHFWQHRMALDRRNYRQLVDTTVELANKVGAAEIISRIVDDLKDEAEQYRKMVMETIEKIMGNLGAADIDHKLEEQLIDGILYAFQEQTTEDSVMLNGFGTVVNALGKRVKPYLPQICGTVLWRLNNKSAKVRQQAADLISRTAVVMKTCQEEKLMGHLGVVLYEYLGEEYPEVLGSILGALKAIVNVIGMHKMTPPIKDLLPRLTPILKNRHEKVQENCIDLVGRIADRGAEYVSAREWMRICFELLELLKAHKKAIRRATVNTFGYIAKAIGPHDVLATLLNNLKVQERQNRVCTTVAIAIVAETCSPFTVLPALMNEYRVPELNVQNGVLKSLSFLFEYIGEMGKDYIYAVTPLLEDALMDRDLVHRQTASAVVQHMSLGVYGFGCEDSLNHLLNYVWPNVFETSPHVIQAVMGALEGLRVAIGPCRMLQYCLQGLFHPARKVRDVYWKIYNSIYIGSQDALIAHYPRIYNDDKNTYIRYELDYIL
UniProt P31947: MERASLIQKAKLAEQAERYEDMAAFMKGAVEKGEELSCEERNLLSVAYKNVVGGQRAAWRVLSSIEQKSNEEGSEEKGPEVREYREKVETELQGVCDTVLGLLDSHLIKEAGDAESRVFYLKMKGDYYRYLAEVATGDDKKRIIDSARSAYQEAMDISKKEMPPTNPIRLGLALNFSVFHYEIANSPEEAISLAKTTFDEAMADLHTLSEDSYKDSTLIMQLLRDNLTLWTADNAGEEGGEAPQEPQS
UniProt Q15637: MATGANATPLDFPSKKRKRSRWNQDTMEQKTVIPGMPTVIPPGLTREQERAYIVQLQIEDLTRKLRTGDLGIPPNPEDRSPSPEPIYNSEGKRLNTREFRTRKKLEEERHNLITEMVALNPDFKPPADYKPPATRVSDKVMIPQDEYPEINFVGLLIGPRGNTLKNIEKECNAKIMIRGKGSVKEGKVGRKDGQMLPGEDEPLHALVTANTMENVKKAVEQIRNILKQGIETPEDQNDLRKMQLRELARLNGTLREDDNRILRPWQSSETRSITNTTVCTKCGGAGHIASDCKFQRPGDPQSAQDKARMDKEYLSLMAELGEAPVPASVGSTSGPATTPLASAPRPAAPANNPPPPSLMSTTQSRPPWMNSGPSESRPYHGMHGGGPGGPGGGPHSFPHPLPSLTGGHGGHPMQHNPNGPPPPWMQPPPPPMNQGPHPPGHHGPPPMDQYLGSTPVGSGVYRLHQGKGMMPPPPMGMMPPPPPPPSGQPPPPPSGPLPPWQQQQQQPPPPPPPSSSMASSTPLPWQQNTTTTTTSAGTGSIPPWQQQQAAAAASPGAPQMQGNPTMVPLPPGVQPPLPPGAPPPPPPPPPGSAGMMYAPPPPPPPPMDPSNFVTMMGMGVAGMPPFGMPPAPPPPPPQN
UniProt Q9UJC5: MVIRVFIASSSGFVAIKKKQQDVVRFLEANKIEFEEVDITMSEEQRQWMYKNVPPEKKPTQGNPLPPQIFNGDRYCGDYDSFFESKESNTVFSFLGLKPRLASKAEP
UniProt Q9C0C4, whole entry, looked up: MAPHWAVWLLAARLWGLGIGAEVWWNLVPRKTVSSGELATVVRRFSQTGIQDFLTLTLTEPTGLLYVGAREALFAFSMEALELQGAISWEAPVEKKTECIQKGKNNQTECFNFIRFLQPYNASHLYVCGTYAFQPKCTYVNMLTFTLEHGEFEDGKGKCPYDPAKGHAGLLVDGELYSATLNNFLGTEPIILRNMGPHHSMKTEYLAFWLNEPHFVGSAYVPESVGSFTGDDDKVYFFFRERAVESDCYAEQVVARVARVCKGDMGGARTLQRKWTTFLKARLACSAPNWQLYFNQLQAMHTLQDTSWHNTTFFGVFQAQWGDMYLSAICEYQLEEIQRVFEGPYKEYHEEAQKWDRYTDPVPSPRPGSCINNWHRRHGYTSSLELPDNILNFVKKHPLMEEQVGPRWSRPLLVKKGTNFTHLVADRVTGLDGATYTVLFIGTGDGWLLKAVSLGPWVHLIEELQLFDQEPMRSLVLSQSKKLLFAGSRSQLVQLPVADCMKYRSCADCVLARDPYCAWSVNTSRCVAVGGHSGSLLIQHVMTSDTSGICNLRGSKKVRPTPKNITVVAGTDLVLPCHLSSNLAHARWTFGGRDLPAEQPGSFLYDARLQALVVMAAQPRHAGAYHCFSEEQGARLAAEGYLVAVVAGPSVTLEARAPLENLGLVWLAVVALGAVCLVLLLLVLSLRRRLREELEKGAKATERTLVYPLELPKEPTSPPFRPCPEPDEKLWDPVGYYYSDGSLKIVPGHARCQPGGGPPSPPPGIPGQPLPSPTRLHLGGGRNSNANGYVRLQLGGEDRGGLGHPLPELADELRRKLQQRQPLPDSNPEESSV
UniProt Q9UHD8: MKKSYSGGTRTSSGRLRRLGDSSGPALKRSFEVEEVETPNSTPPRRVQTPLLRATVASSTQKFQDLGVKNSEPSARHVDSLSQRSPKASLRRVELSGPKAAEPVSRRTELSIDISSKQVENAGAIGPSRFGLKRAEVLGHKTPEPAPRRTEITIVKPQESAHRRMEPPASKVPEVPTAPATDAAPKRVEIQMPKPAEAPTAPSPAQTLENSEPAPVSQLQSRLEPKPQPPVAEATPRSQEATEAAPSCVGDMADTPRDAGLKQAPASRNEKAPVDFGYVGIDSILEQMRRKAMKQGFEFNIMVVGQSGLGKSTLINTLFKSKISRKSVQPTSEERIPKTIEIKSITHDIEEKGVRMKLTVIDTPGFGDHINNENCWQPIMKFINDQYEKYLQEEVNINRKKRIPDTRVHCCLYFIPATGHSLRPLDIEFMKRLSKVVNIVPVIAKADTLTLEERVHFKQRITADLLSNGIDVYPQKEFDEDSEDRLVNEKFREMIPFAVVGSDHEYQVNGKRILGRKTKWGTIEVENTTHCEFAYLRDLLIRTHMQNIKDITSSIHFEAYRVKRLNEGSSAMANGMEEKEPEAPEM
UniProt Q9Y3L3: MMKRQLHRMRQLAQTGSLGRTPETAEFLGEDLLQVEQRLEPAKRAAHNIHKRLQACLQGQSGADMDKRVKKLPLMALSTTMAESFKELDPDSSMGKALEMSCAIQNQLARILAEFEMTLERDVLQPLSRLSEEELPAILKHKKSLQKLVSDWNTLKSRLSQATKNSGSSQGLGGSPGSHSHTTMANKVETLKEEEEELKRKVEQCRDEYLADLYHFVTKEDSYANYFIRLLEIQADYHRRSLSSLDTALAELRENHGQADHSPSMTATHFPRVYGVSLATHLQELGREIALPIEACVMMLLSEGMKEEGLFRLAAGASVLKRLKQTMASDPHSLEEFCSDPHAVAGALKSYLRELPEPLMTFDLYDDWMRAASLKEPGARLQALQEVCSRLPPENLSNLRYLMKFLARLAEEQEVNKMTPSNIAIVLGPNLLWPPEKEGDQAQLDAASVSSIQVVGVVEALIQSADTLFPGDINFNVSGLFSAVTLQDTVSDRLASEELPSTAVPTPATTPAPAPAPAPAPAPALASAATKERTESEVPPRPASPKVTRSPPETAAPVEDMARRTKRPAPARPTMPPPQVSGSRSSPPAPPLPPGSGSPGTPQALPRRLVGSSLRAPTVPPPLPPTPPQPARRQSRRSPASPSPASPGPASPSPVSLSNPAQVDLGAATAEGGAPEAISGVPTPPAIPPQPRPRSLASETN

Each target was assayed with c1cn2cc(-c3ccc4cn[nH]c4c3)nc(Nc3ccc(N4CCOCC4)cc3)c2n1 [entospletinib] (assay: log2 fold change, soluble protein after heating vs DMSO (PISA); higher = thermal stabilisation; K562 cells, 10 uM, 30 min; active = over 0.2 and 3.5 SD of the protein, either way, in both replicates (recomputed)).
Summary of the method: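 K562 cells (2×10^6 cells/mL) were treated with 10 μM compound for 30 min, and aliquots were heated for 3 min over 48°C-58°C. Pooled aliquots were extracted in PBS with 0.5% NP-40 at 4°C, and the supernatant after 21,000xg for 90 min was measured by TMTpro 16plex LC-MS/MS with channel sums equalised. Reported thermal stability, relative to control samples and from duplicates, is a log2 fold change.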

log2 fold change, inactive:
SHC1 isoform 6 (UniProt P29353) -0.016
SEC61B (UniProt P60468) 0.051
SF3A3 (UniProt Q12874) 0.054
SERPINB1 (UniProt P30740) 0.013
SH3BGRL3 (UniProt Q9H299) -0.004
SETDB1 (UniProt Q15047) 0.025
SEPTIN11 isoform 2 (UniProt Q9NVA2) 0.001
SERPINB6, A0A087X1N8 -0.031
SF3B6 (UniProt Q9Y3B4) -0.047
SF3B3 (UniProt Q15393) -0.077
SIRT6 (UniProt Q8N6T7) -0.092
SF3B1 (UniProt O75533) -0.007
SFN (UniProt P31947) -0.014
SF1 isoform 6 (UniProt Q15637) 0.101
SELENOF (UniProt O60613) -0.062
SERPINC1 (UniProt P01008) 0.309
SEL1L3 (UniProt Q68CR1) 0.015
SF1 isoform 5 (UniProt Q15637) 0.034
SH3BGRL2 (UniProt Q9UJC5) 0.038
SEMA4C (UniProt Q9C0C4) 0.077
SEPTIN9 (UniProt Q9UHD8) -0.042
SH3BP1 (UniProt Q9Y3L3) -0.007

Retrieved one by one from the entries so far, 2 records:
log2 fold change, inactive:
SERPINC1 (UniProt P01008) 0.309
SETDB1 (UniProt Q15047) 0.025
